± gives the standard deviation of the averaged measurements. The list shows a part of the results, in another mix than the full data. Small differences around the control level are noise.
Compound: Nc1ncnc2c1ncn2[C@@H]1O[C@H](COP(=O)(O)OP(=O)(O)NP(=O)(O)O)[C@@H](O)[C@H]1O [adenylyl imidodiphosphate]
Assay: NP40-soluble protein abundance relative to vehicle (solubility fold change) (ratio); higher = more soluble protein in presence of AMP-PNP
Method in brief: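 Jurkat crude lysate prepared with a Dounce homogeniser was treated at eight concentrations spanning 0.1 to 10 mM, 10 min at room temperature then 3 min at 37 °C. Solubilisation with 0.8% NP40 and benzonase and ultracentrifugation preceded TMT labelling of the supernatant for LC-MS/MS. Fold change against the detergent-processed vehicle was determined per replicate from vsn-normalised intensities, across three independent experiments.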

Sequences of proteins named here, by UniProt entry; tags and fusion partners are left off. A change or cut given only in a name is not applied to a line headed by its entry.
UniProt Q969S8: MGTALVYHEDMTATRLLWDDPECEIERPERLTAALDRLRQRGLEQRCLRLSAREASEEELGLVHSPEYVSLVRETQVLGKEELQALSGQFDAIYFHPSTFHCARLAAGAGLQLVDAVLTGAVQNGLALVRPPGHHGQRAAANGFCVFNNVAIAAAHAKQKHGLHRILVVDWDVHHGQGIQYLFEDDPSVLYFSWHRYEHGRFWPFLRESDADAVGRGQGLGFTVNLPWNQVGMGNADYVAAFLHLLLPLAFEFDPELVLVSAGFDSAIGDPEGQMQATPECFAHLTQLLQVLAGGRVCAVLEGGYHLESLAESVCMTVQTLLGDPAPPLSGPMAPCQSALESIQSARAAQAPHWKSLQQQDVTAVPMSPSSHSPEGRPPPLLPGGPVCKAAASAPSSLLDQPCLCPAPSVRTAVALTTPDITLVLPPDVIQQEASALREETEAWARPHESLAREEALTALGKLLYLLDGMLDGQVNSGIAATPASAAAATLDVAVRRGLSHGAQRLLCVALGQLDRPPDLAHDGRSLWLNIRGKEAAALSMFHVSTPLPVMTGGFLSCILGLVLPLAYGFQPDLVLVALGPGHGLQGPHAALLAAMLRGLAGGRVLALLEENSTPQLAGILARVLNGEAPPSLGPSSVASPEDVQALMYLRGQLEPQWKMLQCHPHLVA
UniProt Q9UM13, whole entry: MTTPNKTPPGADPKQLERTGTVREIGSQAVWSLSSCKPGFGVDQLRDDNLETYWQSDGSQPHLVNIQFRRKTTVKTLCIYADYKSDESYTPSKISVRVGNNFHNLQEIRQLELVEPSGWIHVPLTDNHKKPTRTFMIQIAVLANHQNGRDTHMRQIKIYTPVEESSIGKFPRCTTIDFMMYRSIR
UniProt Q9Y2K5: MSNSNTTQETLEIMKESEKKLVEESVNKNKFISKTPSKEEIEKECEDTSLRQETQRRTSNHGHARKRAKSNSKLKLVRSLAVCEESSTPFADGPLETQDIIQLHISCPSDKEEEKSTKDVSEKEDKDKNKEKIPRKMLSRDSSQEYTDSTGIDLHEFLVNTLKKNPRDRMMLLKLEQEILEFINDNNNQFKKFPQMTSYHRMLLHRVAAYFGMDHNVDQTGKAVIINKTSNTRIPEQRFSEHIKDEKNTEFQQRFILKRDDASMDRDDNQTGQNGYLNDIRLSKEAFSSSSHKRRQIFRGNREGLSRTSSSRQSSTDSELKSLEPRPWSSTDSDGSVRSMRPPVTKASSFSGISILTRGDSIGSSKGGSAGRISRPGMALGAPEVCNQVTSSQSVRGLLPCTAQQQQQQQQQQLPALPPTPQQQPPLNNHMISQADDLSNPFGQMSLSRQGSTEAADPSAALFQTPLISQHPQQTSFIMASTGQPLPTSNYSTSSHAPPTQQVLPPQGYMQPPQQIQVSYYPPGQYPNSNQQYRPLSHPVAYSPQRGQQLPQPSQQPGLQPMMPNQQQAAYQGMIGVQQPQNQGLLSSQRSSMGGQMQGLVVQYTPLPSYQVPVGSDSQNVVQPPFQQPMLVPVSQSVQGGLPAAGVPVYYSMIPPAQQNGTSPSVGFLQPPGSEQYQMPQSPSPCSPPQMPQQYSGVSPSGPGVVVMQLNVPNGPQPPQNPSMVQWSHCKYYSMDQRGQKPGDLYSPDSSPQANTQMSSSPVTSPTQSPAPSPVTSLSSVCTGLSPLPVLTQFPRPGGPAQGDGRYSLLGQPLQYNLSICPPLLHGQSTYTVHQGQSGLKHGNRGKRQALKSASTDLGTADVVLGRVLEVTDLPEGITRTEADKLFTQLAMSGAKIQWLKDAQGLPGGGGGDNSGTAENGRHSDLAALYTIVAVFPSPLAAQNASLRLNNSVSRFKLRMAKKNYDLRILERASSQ
UniProt Q6P1N9: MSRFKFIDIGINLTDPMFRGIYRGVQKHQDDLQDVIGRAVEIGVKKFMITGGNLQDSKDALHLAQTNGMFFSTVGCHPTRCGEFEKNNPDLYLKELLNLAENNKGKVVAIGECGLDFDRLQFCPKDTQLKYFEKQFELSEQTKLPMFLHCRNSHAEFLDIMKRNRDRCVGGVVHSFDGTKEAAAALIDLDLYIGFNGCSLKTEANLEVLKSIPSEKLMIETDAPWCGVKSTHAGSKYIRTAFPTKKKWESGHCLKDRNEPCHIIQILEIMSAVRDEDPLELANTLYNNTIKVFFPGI
UniProt Q16637, whole entry, looked up: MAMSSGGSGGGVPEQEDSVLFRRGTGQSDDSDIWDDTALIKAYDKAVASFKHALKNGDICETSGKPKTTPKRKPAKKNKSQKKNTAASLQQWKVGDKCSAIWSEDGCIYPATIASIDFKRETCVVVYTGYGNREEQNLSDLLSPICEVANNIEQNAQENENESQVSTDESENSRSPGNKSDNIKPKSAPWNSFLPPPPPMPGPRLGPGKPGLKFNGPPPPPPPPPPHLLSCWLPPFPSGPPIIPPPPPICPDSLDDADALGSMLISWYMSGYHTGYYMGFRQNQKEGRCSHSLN
UniProt P53801: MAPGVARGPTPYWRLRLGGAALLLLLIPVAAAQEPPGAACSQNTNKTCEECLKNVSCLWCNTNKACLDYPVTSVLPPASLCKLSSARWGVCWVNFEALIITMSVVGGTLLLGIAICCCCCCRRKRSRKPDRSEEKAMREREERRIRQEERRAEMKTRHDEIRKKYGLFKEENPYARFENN
UniProt A4D161: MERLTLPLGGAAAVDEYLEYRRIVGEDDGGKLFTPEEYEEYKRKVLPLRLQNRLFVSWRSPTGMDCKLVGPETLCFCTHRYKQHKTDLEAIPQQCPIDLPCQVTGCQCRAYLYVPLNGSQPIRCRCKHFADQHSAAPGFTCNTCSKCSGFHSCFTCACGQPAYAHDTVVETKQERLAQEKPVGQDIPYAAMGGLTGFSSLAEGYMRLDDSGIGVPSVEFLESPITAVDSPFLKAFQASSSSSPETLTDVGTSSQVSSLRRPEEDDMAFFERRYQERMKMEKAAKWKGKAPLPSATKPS
UniProt P51114, whole entry: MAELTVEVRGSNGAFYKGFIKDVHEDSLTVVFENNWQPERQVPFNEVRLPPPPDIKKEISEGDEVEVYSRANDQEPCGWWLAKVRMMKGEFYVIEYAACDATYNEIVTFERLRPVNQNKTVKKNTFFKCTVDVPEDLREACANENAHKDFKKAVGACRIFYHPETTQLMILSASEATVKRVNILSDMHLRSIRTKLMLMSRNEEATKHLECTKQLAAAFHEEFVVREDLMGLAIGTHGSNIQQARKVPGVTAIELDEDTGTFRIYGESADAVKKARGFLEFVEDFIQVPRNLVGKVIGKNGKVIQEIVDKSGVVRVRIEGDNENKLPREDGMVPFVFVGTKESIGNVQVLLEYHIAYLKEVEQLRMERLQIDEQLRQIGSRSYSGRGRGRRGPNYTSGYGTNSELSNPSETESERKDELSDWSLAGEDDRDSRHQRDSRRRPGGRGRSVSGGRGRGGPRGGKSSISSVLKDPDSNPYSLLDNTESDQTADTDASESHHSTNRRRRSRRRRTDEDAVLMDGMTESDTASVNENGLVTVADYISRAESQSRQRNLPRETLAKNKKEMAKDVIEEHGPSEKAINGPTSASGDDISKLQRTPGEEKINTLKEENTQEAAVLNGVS
UniProt P15336: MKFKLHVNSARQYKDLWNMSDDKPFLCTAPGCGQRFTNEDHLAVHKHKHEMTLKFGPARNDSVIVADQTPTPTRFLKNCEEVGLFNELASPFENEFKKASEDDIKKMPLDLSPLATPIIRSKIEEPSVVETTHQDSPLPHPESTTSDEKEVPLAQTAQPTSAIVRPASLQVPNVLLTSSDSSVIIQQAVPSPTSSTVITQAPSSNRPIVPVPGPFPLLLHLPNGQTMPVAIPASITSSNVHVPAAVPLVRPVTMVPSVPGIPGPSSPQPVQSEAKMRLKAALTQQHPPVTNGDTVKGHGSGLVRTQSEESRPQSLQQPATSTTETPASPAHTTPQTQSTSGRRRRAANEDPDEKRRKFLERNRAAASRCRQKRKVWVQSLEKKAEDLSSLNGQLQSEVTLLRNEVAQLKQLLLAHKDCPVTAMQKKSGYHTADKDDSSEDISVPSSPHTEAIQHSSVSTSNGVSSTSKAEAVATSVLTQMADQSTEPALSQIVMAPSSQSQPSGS
UniProt P63098, whole entry, looked up: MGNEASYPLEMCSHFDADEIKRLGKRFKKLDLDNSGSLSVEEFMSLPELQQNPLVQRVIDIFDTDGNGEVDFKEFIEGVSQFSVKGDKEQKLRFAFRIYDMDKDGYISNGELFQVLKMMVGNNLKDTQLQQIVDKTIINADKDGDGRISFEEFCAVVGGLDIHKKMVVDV
UniProt P55209: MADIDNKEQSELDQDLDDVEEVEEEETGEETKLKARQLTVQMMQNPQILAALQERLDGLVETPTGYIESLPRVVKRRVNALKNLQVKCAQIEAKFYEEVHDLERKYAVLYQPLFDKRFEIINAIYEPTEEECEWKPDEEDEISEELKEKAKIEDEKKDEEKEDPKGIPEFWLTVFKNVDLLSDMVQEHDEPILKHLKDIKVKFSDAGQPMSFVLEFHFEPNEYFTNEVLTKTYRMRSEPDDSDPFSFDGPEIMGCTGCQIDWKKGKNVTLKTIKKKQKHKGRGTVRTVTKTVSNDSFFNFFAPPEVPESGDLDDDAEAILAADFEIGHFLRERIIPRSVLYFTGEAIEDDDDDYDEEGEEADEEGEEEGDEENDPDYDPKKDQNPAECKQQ
UniProt P35222, whole entry: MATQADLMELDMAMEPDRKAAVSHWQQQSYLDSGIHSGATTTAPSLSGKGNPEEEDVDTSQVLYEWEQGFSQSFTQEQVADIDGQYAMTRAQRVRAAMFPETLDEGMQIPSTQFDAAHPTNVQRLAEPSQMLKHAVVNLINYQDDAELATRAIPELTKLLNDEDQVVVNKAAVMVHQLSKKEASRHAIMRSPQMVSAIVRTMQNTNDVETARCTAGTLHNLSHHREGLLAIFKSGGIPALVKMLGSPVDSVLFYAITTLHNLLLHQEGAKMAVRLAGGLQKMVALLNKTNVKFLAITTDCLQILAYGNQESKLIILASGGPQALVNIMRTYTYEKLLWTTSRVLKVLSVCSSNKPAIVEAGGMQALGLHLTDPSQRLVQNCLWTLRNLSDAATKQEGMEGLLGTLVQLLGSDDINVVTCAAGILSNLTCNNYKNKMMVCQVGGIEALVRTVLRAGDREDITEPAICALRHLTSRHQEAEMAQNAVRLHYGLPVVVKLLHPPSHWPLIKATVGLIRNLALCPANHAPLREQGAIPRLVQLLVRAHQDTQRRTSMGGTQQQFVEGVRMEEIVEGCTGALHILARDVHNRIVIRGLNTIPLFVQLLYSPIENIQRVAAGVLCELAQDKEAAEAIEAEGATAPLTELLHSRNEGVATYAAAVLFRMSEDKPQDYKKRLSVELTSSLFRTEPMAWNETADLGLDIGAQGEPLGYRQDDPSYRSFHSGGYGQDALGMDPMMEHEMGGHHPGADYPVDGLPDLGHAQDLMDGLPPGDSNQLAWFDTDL
UniProt Q7Z2W4: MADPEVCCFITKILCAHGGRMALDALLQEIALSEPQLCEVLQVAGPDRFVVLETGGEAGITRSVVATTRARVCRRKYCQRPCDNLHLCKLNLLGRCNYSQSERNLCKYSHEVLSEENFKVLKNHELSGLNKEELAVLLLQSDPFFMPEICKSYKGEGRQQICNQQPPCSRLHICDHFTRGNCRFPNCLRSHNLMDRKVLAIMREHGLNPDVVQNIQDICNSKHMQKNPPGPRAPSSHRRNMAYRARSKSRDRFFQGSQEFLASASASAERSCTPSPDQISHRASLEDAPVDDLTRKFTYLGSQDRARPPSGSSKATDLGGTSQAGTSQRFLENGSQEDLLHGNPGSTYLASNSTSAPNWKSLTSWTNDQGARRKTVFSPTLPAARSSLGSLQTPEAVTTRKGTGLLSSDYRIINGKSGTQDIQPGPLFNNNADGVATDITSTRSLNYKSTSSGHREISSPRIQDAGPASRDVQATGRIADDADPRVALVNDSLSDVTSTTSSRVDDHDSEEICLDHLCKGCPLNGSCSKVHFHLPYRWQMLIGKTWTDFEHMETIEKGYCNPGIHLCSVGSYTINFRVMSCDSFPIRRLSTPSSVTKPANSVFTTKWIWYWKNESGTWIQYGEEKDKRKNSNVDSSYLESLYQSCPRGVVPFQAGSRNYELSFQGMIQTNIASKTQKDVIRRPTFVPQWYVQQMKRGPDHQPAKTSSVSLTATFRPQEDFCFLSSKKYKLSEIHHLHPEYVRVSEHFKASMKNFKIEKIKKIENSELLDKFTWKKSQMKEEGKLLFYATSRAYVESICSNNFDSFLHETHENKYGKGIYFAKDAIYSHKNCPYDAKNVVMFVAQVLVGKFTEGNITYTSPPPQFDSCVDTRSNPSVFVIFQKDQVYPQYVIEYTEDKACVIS
UniProt Q9BV97: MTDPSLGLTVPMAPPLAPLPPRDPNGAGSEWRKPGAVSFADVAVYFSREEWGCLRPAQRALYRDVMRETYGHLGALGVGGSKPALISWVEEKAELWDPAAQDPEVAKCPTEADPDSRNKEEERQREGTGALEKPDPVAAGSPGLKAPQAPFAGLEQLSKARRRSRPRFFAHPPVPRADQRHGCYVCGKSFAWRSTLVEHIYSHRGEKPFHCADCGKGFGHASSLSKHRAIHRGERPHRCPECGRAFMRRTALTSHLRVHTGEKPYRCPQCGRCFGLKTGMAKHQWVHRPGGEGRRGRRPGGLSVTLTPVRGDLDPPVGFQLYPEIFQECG

Row | Target | NP40-soluble protein abundance (concentration: 0.1mM) | NP40-soluble protein abundance (concentration: 0.5mM)
1 | A6PVU7 and related entries (UniProt Q9P2M7) | 1.03 ± 0.031 | 1.03 ± 0.032
2 | C9J6N9 and related entries (UniProt Q92890) | 1 ± 0.021 | 0.988 ± 0.016
3 | B4DI03 and related entries (UniProt Q9BY50) | 0.973 ± 0.045 | 0.944 ± 0.026
4 | CCDC85C (UniProt A6NKD9) | 0.995 ± 0.021 | 0.984 ± 0.028
5 | B4DDF4 and related entries (UniProt Q99439) | 0.978 ± 0.039 | 1.03 ± 0.062
6 | C9JUL4 and related entries (UniProt Q9UDY4) | 0.965 ± 0.05 | 1 ± 0.022
7 | D6REX3 and related entries (UniProt O94979) | 0.998 ± 0.033 | 1 ± 0.027
8 | B4E1E4 and related entries (UniProt O60573) | 0.984 ± 0.02 | 0.948 ± 0.024
9 | C9IY68 and related entries (UniProt Q9BQ75) | 0.996 ± 0.051 | 1 ± 0.044
10 | A2IDC6 and related entries (UniProt Q13084) | 0.991 ± 0.028 | 1.03 ± 0.055
11 | B5MCQ4 (UniProt Q9BY27) | 0.992 ± 0.046 | 1.01 ± 0.048
12 | A6PVN5 and related entries (UniProt Q15257) | 1.03 ± 0.048 | 1.03 ± 0.05
13 | C9J8B8 and related entries (UniProt Q969S8) | 0.964 ± 0.001 | 0.9782 ± 0.0042
14 | A2IDA3 and related entries (UniProt P29372) | 1.01 ± 0.024 | 1.01 ± 0.045
15 | C9JYJ8 and related entries (UniProt Q9BWE0) | 0.981 ± 0.012 | 1 ± 0.017
16 | B4E3Q4 and related entries (UniProt Q9NZK5) | 1.04 ± 0.036 | 0.99 ± 0.041
17 | B1AMW1 and related entries (UniProt P19256) | 0.996 ± 0.045 | 1.09 ± 0.11
18 | C9JDQ1 and related entries (UniProt Q13724) | 1 ± 0.011 | 0.98 ± 0.035
19 | B3KQH5 and related entries (UniProt Q9UL03) | 1.02 ± 0.019 | 0.981 ± 0.027
20 | A6NMH8 and related entries (UniProt P60033) | 0.97 ± 0.038 | 0.97 ± 0.04
21 | D6RIF6 and related entries (UniProt Q9P270) | 0.996 ± 0.03 | 0.99 ± 0.011
22 | D6R9Q5 and related entries (UniProt Q9UM13) | 1.04 ± 0.021 | 0.999 ± 0.031
23 | UniProt A2RUC4 | 1 ± 0.026 | 0.966 ± 0.022
24 | C9JNW5 and related entries (UniProt P83731) | 1.07 ± 0.034 | 1 ± 0.035

Row | Target | NP40-soluble protein abundance (concentration: 0.1mM) | NP40-soluble protein abundance (concentration: 0.5mM)
25 | KIAA1147 (UniProt A4D1U4) | 1.01 ± 0.02 | 1 ± 0.011
26 | B7Z683 and related entries (UniProt Q12979) | 1.02 ± 0.022 | 0.9816 ± 0.0084
27 | B4E0Y9 and related entries (UniProt Q9P289) | 0.986 ± 0.03 | 1.01 ± 0.004
28 | A2RUF3 and related entries (UniProt O75044) | 0.994 ± 0.023 | 0.982 ± 0.02
29 | B3KR61 and related entries (UniProt Q5TEU4) | 1.01 ± 0.033 | 1.05 ± 0.079
30 | C9JF71 and related entries (UniProt Q8TBF5) | 0.998 ± 0.035 | 1.01 ± 0.018
31 | D6RB01 and related entries (UniProt Q9Y6X4) | 0.998 ± 0.037 | 1.03 ± 0.044
32 | C9J7Z4 and related entries (UniProt Q8NCE0) | 0.992 ± 0.037 | 0.977 ± 0.044
33 | C9JAK5 and related entries (UniProt P18085) | 1.11 ± 0.048 | 1.04 ± 0.12
34 | B5MCU0 (UniProt Q9Y2K5) | 0.9864 ± 0.0045 | 0.987 ± 0.016
35 | A2RQR6 and related entries (UniProt Q96EI5) | 0.969 ± 0.019 | 0.997 ± 0.025
36 | C9JA69 and related entries (UniProt Q8WY36) | 1 ± 0.025 | 1.02 ± 0.075
37 | B1AKC9 and related entries (UniProt P29323) | 0.998 ± 0.05 | 0.993 ± 0.018
38 | A6NCE7 and related entries (UniProt Q9GZQ8+H3BTL1+A6NCE7) | 1.02 ± 0.054 | 1.01 ± 0.021
39 | C9J5X1 and related entries (UniProt P08069) | 0.988 ± 0.023 | 1 ± 0.011
40 | B5MCH3 and related entries (UniProt Q8N3C7) | 0.984 ± 0.024 | 0.992 ± 0.014
41 | B4DKB2 and related entries (UniProt P42892) | 1.02 ± 0.028 | 1.04 ± 0.037
42 | A6PW57 and related entries (UniProt Q99755) | 1.03 ± 0.016 | 1.0476 ± 0.00044
43 | B1AJY7 and related entries (UniProt O75832) | 0.978 ± 0.043 | 0.998 ± 0.057
44 | E5RG17 and related entries (UniProt Q6P1N9) | 0.975 ± 0.02 | 0.981 ± 0.011
45 | B4DP61 and related entries (UniProt Q16637+E7EQZ4+B4DP61) | 1.0139 ± 0.00047 | 0.993 ± 0.087
46 | B4DTY2 and related entries (UniProt O15304) | 0.987 ± 0.067 | 0.986 ± 0.03
47 | A6NMT1 and related entries (UniProt Q9BY41) | 1.01 ± 0.022 | 0.975 ± 0.042
48 | A8MTY9 and related entries (UniProt O14972) | 1.03 ± 0.022 | 0.9957 ± 0.0097

Row | Target | NP40-soluble protein abundance (concentration: 0.1mM) | NP40-soluble protein abundance (concentration: 0.5mM)
49 | B1AL69 and related entries (UniProt Q7L3B6) | 1.01 ± 0.011 | 0.996 ± 0.032
50 | B2RA97 and related entries (UniProt Q9Y5N5) | 1 ± 0.041 | 1.01 ± 0.04
51 | C9JCC6 and related entries (UniProt Q14919) | 1.05 ± 0.11 | 1.05 ± 0.14
52 | B4E0T2 and related entries (UniProt P50542) | 0.994 ± 0.021 | 0.976 ± 0.037
53 | C9J066 and related entries (UniProt Q8N4C6) | 1.03 ± 0.047 | 1.04 ± 0.067
54 | B4DRN8 and related entries (UniProt Q5W0Z9) | 1.01 ± 0.021 | 0.9967 ± 0.005
55 | C9J470 and related entries (UniProt Q15003) | 0.993 ± 0.013 | 1.01 ± 0.052
56 | C9JJV1 and related entries (UniProt Q9Y5U2) | 1.01 ± 0.014 | 1.07 ± 0.11
57 | UniProt A3KMH1 and related entries | 0.9929 ± 0.0084 | 0.937 ± 0.069
58 | B5MCF9 and related entries (UniProt O00541) | 0.994 ± 0.0021 | 1.014 ± 0.0097
59 | A8MZH8 and related entries (UniProt P53801) | 1.02 ± 0.071 | 1 ± 0.072
60 | UniProt A4D161 and related entries | 0.975 ± 0.012 | 1.01 ± 0.026
61 | E2QRF9 and related entries (UniProt O75496) | 0.981 ± 0.032 | 0.993 ± 0.016
62 | B4DXZ6 and related entries (UniProt P51114) | 1.03 ± 0.031 | 1.04 ± 0.046
63 | A8MU27 and related entries (UniProt P55854) | 0.9937 ± 0.0053 | 1.06 ± 0.06
64 | C9JF66 and related entries (UniProt Q6PIZ9) | 0.986 ± 0.013 | 0.994 ± 0.014
65 | C9JYM0 and related entries (UniProt O75817) | 1 ± 0.015 | 0.9923 ± 0.0056
66 | B8ZZU6 and related entries (UniProt P15336) | 1.01 ± 0.02 | 0.998 ± 0.051
67 | B4DR80 and related entries (UniProt Q9Y6E0) | 0.967 ± 0.028 | 0.997 ± 0.014
68 | E5RI87 and related entries (UniProt Q86XS8) | 1.03 ± 0.068 | 1.03 ± 0.033
69 | D3YTA9 and related entries (UniProt H7BYZ3+F6U1T9+P63098+D3YTA9) | 0.967 ± 0.017 | 1.04 ± 0.057
70 | B7Z9C2 and related entries (UniProt P55209) | 0.995 ± 0.012 | 1 ± 0.017
71 | B1ALH6 and related entries (UniProt O14832) | 0.971 ± 0.024 | 0.971 ± 0.021
72 | A6NG10 and related entries (UniProt Q969T9) | 1 ± 0.02 | 0.998 ± 0.038

Row | Target | NP40-soluble protein abundance (concentration: 0.1mM) | NP40-soluble protein abundance (concentration: 0.5mM)
73 | D6RAJ6 and related entries (UniProt Q9UKT5) | 0.987 ± 0.032 | 1.01 ± 0.048
74 | C9JYN0 and related entries (UniProt Q16563) | 1.04 ± 0.093 | 1.05 ± 0.028
75 | B4DGU4 and related entries (UniProt P35222) | 0.97 ± 0.043 | 1.01 ± 0.025
76 | C9J6P4 and related entries (UniProt Q7Z2W4) | 1.03 ± 0.015 | 1.05 ± 0.023
77 | C9J494 and related entries (UniProt Q9H000) | 0.9946 ± 0.0078 | 1 ± 0.022
78 | C9J4Z3 and related entries (UniProt P61513) | 1.02 ± 0.0097 | 1.03 ± 0.028
79 | A6NF51 and related entries (UniProt O95861) | 0.999 ± 0.018 | 1.03 ± 0.031
80 | MYO1G (UniProt B0I1T2) | 1.11 ± 0.045 | 1.09 ± 0.089
81 | D6RA71 and related entries (UniProt P78317) | 0.994 ± 0.012 | 0.997 ± 0.038
82 | B4DJL6 and related entries (UniProt Q96SY0) | 0.98 ± 0.027 | 0.98 ± 0.024
83 | B1AK44 and related entries (UniProt Q9UI95) | 1.042 ± 0.0094 | 0.949 ± 0.023
84 | B7Z5R0 (UniProt Q9BV97) | 0.994 ± 0.031 | 1.01 ± 0.031
85 | B3KVZ3 and related entries (UniProt Q9H3R5) | 1.03 ± 0.024 | 1.04 ± 0.023
86 | B7ZL14 and related entries (UniProt Q96RU3) | 1 ± 0.032 | 1.02 ± 0.061
87 | D6R9C7 and related entries (UniProt Q6NW29) | 0.996 ± 0.02 | 0.985 ± 0.018
88 | UniProt A2VDJ0 and related entries | 0.984 ± 0.03 | 0.978 ± 0.035
89 | C9J2P0 and related entries (UniProt P51965) | 0.972 ± 0.019 | 1 ± 0.034
90 | D6R9C6 and related entries (UniProt P27707) | 1.01 ± 0.033 | 1.04 ± 0.045
91 | C9JKL2 and related entries (UniProt O95772) | 1 ± 0.034 | 1.01 ± 0.048
92 | C9J381 and related entries (UniProt P20839) | 1 ± 0.014 | 0.973 ± 0.036
93 | C9JFE4 and related entries (UniProt Q13098) | 0.992 ± 0.04 | 1.04 ± 0.057
94 | B9A057 and related entries (UniProt Q86WW8) | 1.03 ± 0.05 | 1.05 ± 0.018
95 | C9JLU1 and related entries (UniProt P52434) | 1.02 ± 0.055 | 0.982 ± 0.13
96 | C9IZN5 and related entries (UniProt Q16718) | 1.08 ± 0.029 | 0.97 ± 0.029

Two records picked at random from the list so far, as already listed:
Row | Target | NP40-soluble protein abundance (concentration: 0.1mM) | NP40-soluble protein abundance (concentration: 0.5mM)
94 | B9A057 and related entries (UniProt Q86WW8) | 1.03 ± 0.05 | 1.05 ± 0.018
85 | B3KVZ3 and related entries (UniProt Q9H3R5) | 1.03 ± 0.024 | 1.04 ± 0.023

Whole records from above:
UniProt A2VDJ0 and related entries reads NP40-soluble protein abundance (concentration: 0.1mM): 0.984 ± 0.03; NP40-soluble protein abundance (concentration: 0.5mM): 0.978 ± 0.035
C9JLU1 and related entries (UniProt P52434) reads NP40-soluble protein abundance (concentration: 0.1mM): 1.02 ± 0.055; NP40-soluble protein abundance (concentration: 0.5mM): 0.982 ± 0.13
C9J494 and related entries (UniProt Q9H000) reads NP40-soluble protein abundance (concentration: 0.1mM): 0.9946 ± 0.0078; NP40-soluble protein abundance (concentration: 0.5mM): 1 ± 0.022
